Data: publication doi:10.1101/2024.10.01.616059 (bioRxiv, 2024)
These are yes or no findings as the source states them, for the method shown. A result given as binding can be weak or reduced; the word gives no strength.

Target: T1, phosphoribosyl pyrophosphate synthetase 2 (PRPS2), mouse, endogenous (mouse (endogenous in NIH3T3 and C57BL/6 tissue)) (UniProt Q9CS42)
T1 sequence: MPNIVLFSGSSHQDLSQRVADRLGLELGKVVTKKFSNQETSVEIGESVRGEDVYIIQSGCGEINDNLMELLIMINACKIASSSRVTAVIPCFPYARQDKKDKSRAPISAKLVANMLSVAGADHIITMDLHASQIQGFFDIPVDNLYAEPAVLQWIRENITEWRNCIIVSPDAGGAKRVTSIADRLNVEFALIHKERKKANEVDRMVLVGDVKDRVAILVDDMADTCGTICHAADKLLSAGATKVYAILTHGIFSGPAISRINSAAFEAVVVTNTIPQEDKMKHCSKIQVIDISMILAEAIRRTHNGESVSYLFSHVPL
Assay: SEC; native whole-cell lysates of NIH3T3 AP1/AP2 KO cells stably expressing one exogenous AP1 or AP2 isoform or AP1/AP2 chimera, on Superose 6 Increase 3.2/300; fractions immunoblotted

Substance: short isoform of PRPSAP2, ALFA-tagged (exogenous)
- binding: binds
